Binding data for one substance are collected here from paper PMC13483431, “Structure and mechanism of the HSV-1 origin-binding protein UL9” (Journal of Virology, 2025).

Chains of the proteins cited; added tags and fusions are not shown. Residues count along the entry.
UniProt P10193, residues 536-851: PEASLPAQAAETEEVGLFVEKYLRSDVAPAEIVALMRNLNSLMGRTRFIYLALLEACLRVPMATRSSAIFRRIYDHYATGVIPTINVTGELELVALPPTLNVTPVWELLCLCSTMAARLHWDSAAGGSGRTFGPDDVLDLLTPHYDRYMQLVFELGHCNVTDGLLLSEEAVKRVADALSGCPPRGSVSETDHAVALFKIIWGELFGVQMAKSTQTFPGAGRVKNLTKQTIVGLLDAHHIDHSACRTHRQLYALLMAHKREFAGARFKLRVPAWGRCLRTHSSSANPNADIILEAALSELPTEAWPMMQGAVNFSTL

No constants are given. Whether binding was seen depends on the method and setting.

The assay concerns the target His-tagged UL9 C-terminal domain (residues 536-851) (HSV-1) (UniProt P10193). Description: SEC; purified UL9^CTD; Superdex 75 Increase 10/300 GL in Gel Filtration Buffer (20 mM HEPES, 300 mM NaCl, 1 mM DTT, pH 7.0); both purified. A general note: Size exclusion chromatography separates by hydrodynamic size, large species first.

As to “His-tagged UL9 C-terminal domain (residues 536-851) (from UniProt P10193 536-851) (domain or fragment)”, the binding entry was “no binding”.
